Values of other authors in patent US7217702B2, “Selective antagonists of A2A adenosine receptors” (Adenosine Therapeutics, LLC, priority 2004, dated 2007).
At least one compound was matched to its structure with a doubt left.

Test system: PD patients
Conditions: 20–80 mg/day, one study; cited from earlier work

CCn1c(=O)c2c(nc(/C=C/c3ccc(OC)c(OC)c3)n2C)n(CC)c1=O [KW6002]
motor activity in clinical trial: enhanced motor activity
